Results deposited as PubChem BioAssay AID504774 (Drosophila RNAi Screening Center, 2011)
In all, the deposit lists about 23,000 reagents; this is a random part of those that have a named target and a result. 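Values are quantile-normalised luminescence on an arbitrary scale; higher means more cells surviving MMS.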 Not all columns of the deposit are shown.

Test: 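Genes required for cells to withstand methyl methanesulphonate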 (primary screen)
System: Drosophila Kc167 cells
Knock-down reagent: long dsRNA against Drosophila genes, about 0.25 µg dsRNA per well
Duration: about 6 days: 3 days knock-down, then 3 days with or without MMS
Conditions: methyl methanesulphonate 0.004% (w/v) for 3 days after knock-down
Measured: 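Viability in wells given MMS, read as ATP luminescence, normalised by quantiles plate by plate and averaged across replicates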
Reading the numbers: mean viability with MMS: higher = more surviving cells after MMS

After knock-down of AP-1sigma (GeneID 42835) [DRSC15899], the record shows mean viability with MMS 3.60e6.
Knock-down of ND-51L2 (GeneID 36695) [DRSC07080] gave: mean viability with MMS 3.54e6.
Knock-down of CG14297 (GeneID 42260) [DRSC14776] gave: mean viability with MMS 3.42e6.
With knock-down of CG9286 (GeneID 41690) [DRSC16467], the screen gave mean viability with MMS 3.39e6.
With knock-down of bi (GeneID 31379) [DRSC18742], the record shows mean viability with MMS 3.64e6.

Looked up above.
ND-51L2 (GeneID 36695) [DRSC07080], mean viability with MMS = 3.54e6
For “mean viability with MMS”, bi (GeneID 31379) [DRSC18742] reads 3.64e6

The results go on.
With knock-down of CG18731 (GeneID 59246) [DRSC15377] the results were mean viability with MMS 3.40e6.
CG16964 (GeneID 34605) [DRSC02546] scored mean viability with MMS 3.54e6.
For cue (GeneID 38174) [DRSC08248] the deposit lists mean viability with MMS 3.51e6.
With knock-down of CG11842 (GeneID 43431) [DRSC14400], the screen gave mean viability with MMS 3.48e6.
CG17764 (GeneID 31440) [DRSC18135] gave mean viability with MMS 3.27e6.
CG17764 (GeneID 31440) [DRSC23055] showed mean viability with MMS 3.25e6.
Itpr (GeneID 40664) [DRSC12354] showed mean viability with MMS 3.53e6.
Against CG6707 (GeneID 39168) [DRSC10697] the deposit lists mean viability with MMS 3.54e6.
Against CG1631 (GeneID 33029) [DRSC20535], the values are mean viability with MMS 3.50e6.
